Reference: PubChem BioAssay AID493014 (National Center for Advancing Translational Sciences (NCATS), 2011)
The other results are listed elsewhere or left out. These are further read-outs of the screen, such as a control signal, another cell line or another target. No call is given for them. Compounds called inactive in the main read-out are mostly missing here. Potencies come from curve fits of mixed quality, noted in brackets.

Test: qHTS Assay to Find Inhibitors of Chronic Active B-Cell Receptor Signaling
Details: ABC-DLBCL IkBa-CBG/CBR reporter, luminescence ratio (green luciferase fused to IkBa over red control in TMD8 lymphoma cells), 4 h
Outline: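 Compounds up to 46 uM were incubated four hours with TMD8 cells whose green CBG68 luciferase is fused to IkappaBalpha; red CBR luminescence normalised the signal, and concentration-effect curves were fitted to fusion, red and ratio data.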

[1] = measured here: CBR red luminescence, cell number
[2] = measured here: IkBa-CBG green luminescence

With `C=CCNc1nc(-c2ccc([N+](=O)[O-])cc2)cs1` the AC50 [1] was 0.517 µM [rising, partial curve].
In the case of `c1ccc(-c2ccccc2OCCCN2CCCCCC2)cc1`, the AC50 [1] was 12.6 µM [falling, single point].
For `Cc1ccc(-n2[nH]c(C)c(/C=N/NC(=O)c3ccc(O)cc3O)c2=O)cc1`, the AC50 [1] was 0.316 µM [falling, full curve, poor fit].
With `CCC(=O)Oc1ccc(C(=O)Nc2cccc(NC(=O)c3ccco3)c2)cc1` the AC50 [1] was 1.26 µM [falling, full curve].
For `CC1(C)O[C@@H]2C[C@H]3[C@@H]4CCC5=CC(=O)CC[C@]5(C)[C@@]4(F)[C@@H](O)C[C@]3(C)[C@]2(C(=O)CCl)O1`, the AC50 [1] was 0.517 µM [rising, full curve, poor fit].
With `COc1cccc(CC(NC(C)=O)C(=O)NC2CCN(C(=O)NCc3ccccc3)CC2)c1` (stereo not given) the AC50 [1] was 25.1 µM [falling, partial curve, poor fit].
With `CCCc1cc(=O)[nH]c2nnc(SCC(=O)N3CC(C)OC(C)C3)n12` (stereo not given) the AC50 [1] was 1.84 µM [rising, full curve, poor fit].
In the case of `CCN1CCN(C(=O)C2CCC(CNS(=O)(=O)c3ccccc3)CC2)CC1` (stereo not given), the AC50 [1] was 4.61 µM [falling, single point].
With `COc1ccccc1-c1sc2ccccc2c1-c1ccc2c(c1)OCCO2` the AC50 [1] was 18.4 µM [rising, partial curve].
For `CC(/C=N/NC(=O)c1sc(N)nc1C)=C\c1ccccc1`, the AC50 [1] was 0.501 µM [falling, full curve].
For `COc1ccc(N2CCN(C3CCCCC3NS(=O)(=O)c3ccc(Cl)cc3)CC2)cc1` (stereo not given), the AC50 [1] was 3.98 µM [rising, partial curve].
In the case of `Cc1ccc(Cn2nc(C)c(C(=O)N3CCN(S(=O)(=O)/C=C/c4ccccc4)CC3)c2C)cc1`, the AC50 [1] was 0.82 µM [rising, full curve, poor fit].
For `C/C(CC(=O)Nc1ccc(Cl)c(C(F)(F)F)c1)=N\NC(N)=S`, the AC50 [1] was 10 µM [falling, partial curve, poor fit].
With `CCn1cc(C(=O)O)c(=O)c2cc(F)c(N3CCN(C(=S)Nc4ccccc4OC)CC3)cc21` the AC50 [1] was 22.4 µM [falling, single point].
For `COc1cc(C(=O)NCC(c2cccnc2)N2CCN(c3ccccc3)CC2)cc(OC)c1OC` (stereo not given), the AC50 [1] was 6.51 µM [rising, single point].
For `COc1ccc(NC(=O)c2oc3ccccc3c2NC(=O)c2ccc3c(c2)OCO3)cc1`, the AC50 [1] was 2.91 µM [falling, full curve].
For `O=C(O)c1ccc(N/N=C/c2ccncc2)cc1`, the AC50 [1] was 0.447 µM [falling, full curve].
For `CC(C)c1ccc2[nH]c3c(c2c1)CCC/C3=N\NC(=O)c1ccncc1`, the AC50 [1] was 8.91 µM [rising, partial curve].
With `O=C(CSc1cccc[n+]1[O-])c1cc(Cl)ccc1Cl` the AC50 [1] was 0.708 µM [falling, partial curve, poor fit] and the AC50 [2] was 0.631 µM [falling, full curve, poor fit].
For `Cc1c(OCC(=O)N2CCC(C(=O)O)CC2)ccc2c3c(c(=O)oc12)CCC3`, the AC50 [1] was 2.51 µM [falling, partial curve].
For `CCC(CC)NC(=O)c1oc2ccccc2c1COc1ccccc1`, the AC50 [1] was 13 µM [falling, partial curve, poor fit].
For `Cc1cc(NC(=O)CSc2nnc(C3COc4ccccc4O3)n2N)no1` (stereo not given), the AC50 [1] was 3.55 µM [falling, single point].
With `BrC(/C=N/N1CCN(Cc2ccccc2)CC1)=C/c1ccccc1` the AC50 [1] was 0.2 µM [rising, full curve, poor fit].
For `COC(=O)c1cc2occc2n1Cc1nc(-c2ccccc2F)oc1C`, the AC50 [1] was 0.501 µM [rising, full curve, poor fit].
For `CCOC(=O)c1sc2nc(CC(=O)OC)nc(N(C)CCc3ccccn3)c2c1C`, the AC50 [1] was 0.794 µM [rising, partial curve, poor fit].
In the case of `N#C/C(=C(/O)c1ccc(Br)s1)c1nc2ccccc2[nH]1`, the AC50 [1] was 0.282 µM [falling, full curve, poor fit].
With `C=CCc1cc(OC)ccc1OCCN(C)Cc1ccccc1` the AC50 [1] was 31.6 µM [rising, single point].
With `O=C(CSc1nc(=O)n2ccccc2n1)Nc1ccc2c(c1)OCO2` the AC50 [1] was 25.9 µM [rising, single point].
In the case of `Cc1cccc(-n2c(O)c(C=Nc3ccccc3O)c3ccccc3c2=O)n1`, the AC50 [1] was 17.8 µM [falling, single point].
In the case of `Nc1c(Cl)ncnc1N1CCN(c2ncnc(Cl)c2N)CC1`, the AC50 [1] was 3.26 µM [falling, partial curve, poor fit].
With `O=C1C=CC(=O)N1CCCCCCN1C(=O)C=CC1=O` the AC50 [1] was 2.06 µM [falling, full curve].
With `COc1ccc(C(NC(C)=O)c2c(O)ccc3ccccc23)cc1OC` (stereo not given) the AC50 [1] was 2.59 µM [rising, partial curve, poor fit].
For `COc1ccccc1/C=C/C=C(\C#N)C(=O)NC(C)c1ccccc1` (stereo not given), the AC50 [1] was 7.94 µM [falling, partial curve].
With `CCN(C(=O)COC(=O)c1ccc(OC)c(S(=O)(=O)N(C)Cc2ccccc2)c1)C1CCS(=O)(=O)C1` (stereo not given) the AC50 [1] was 0.366 µM [falling, full curve].
For `Cc1c(C(=O)c2no[n+]([O-])c2C(=O)c2cnn(C)c2C)cnn1C`, the AC50 [1] was 12.6 µM [falling, partial curve] and the AC50 [2] was 5.01 µM [falling, single point].
With `CCn1nc([N+](=O)[O-])c(C(C#N)c2nc3cc(C(F)(F)F)ccc3s2)c(Cl)c1=O` (stereo not given) the AC50 [1] was 29.1 µM [falling, single point].
With `Cc1ccc(-c2ccc(/C=N/N=C3/NC(=O)C(CC(=O)O)S3)o2)c([N+](=O)[O-])c1` (stereo not given) the AC50 [1] was 29.1 µM [falling, single point].
With `CCOC(=O)c1cnc2ccc(C)cc2c1NCCO` the AC50 [2] was 20.6 µM [rising, partial curve, poor fit].
In the case of `COc1cc(OC)cc(-c2c(C#Cc3ccsc3)c3cc(-c4ccccc4OC)ccc3n2C)c1`, the AC50 [1] was 6.51 µM [falling, single point].
In the case of `Cc1nc2cc(NC(=O)Nc3cccc(F)c3)ccc2n1C`, the AC50 [1] was 35.5 µM [falling, single point].
In the case of `Cc1cc(OCC(=O)Nc2ccc(CN3CCOCC3)cc2)ccc1Cl`, the AC50 [1] was 12.6 µM [falling, partial curve].
For `CN(C)c1ccc(-c2cc3ccccc3c(=O)o2)cc1`, the AC50 [1] was 0.259 µM [rising, full curve, poor fit].
For `Cc1cc2oc(=O)cc(CN(C)Cc3ccccc3Cl)c2cc1C`, the AC50 [1] was 10 µM [rising, partial curve, poor fit].
With `CCN(CC)C(=O)C(C)N(C#N)c1nc(NC(C)C)nc(NC(C)C)n1` (stereo not given) the AC50 [1] was 0.00461 µM [rising, full curve, poor fit].
In the case of `Cn1c(=O)c(=O)n(C)c2cc(S(=O)(=O)Nc3ccc4c(c3)OCCO4)ccc21`, the AC50 [1] was 32.6 µM [falling, single point].
With `COc1ccc(NC(=O)CSc2nc(C)cs2)c([N+](=O)[O-])c1` the AC50 [1] was 5.8 µM [rising, partial curve, poor fit].
With `COc1cc(NC(=O)CN(c2cc(C)cc(C)c2)S(=O)(=O)c2c(C)noc2C)cc(OC)c1` the AC50 [1] was 7.31 µM [falling, partial curve] and the AC50 [2] was 18.4 µM [rising, partial curve, poor fit].
In the case of `Cn1cc(CN2CCCC(C(=O)c3cc(F)ccc3F)C2)c2ccccc21` (stereo not given), the AC50 [1] was 20 µM [falling, single point].
With `O=C(COC(=O)Cc1ccccc1F)Nc1cccc(F)c1` the AC50 [1] was 22.4 µM [rising, partial curve, poor fit].
For `COc1cccc(NC(=O)Nc2ccc(C(C)(C)C)cc2)c1`, the AC50 [1] was 20 µM [falling, single point].
For `Cc1ccc(C(=O)COC(=O)CCC(=O)Nc2cccc(Cl)c2)cc1[N+](=O)[O-]`, the AC50 [1] was 4.47 µM [rising, single point].
For `COc1ccccc1NC(=O)c1nnn(CC(=O)Nc2cccc(SC)c2)c1N`, the AC50 [1] was 13 µM [falling, partial curve, poor fit].
In the case of `CCCCC(=O)NC(c1ccccc1)c1ccc2cccnc2c1O` (stereo not given), the AC50 [1] was 3.55 µM [falling, partial curve, poor fit].
In the case of `COc1ccc2cnn(-c3ccc(OC(F)(F)Cl)cc3)c(=O)c2c1OC`, the AC50 [1] was 0.794 µM [rising, full curve, poor fit].
With `COc1ccc(-c2cc3ccccc3n2CC(O)CNC(CO)(CO)CO)cc1` (stereo not given) the AC50 [1] was 9.2 µM [falling, single point].
With `COc1cc2c(cc1OC)CN(C(=O)c1ccc(S(=O)(=O)N3CCCC3)cc1)CC2` the AC50 [1] was 6.31 µM [rising, single point].
For `Cc1ccc(CN2C(=O)N/C(=C\c3ccc(N4CCOCC4)cc3)C2=O)cc1`, the AC50 [1] was 29.1 µM [rising, single point].
For `CCOC(=O)C1=C(O)c2ccccc2C(=O)/C1=C\c1ccc(C)cc1`, the AC50 [1] was 29.1 µM [falling, single point].
In the case of `O=C1CCC(C(=O)N2CCOCC2)CN1Cc1ccc(Cl)cc1` (stereo not given), the AC50 [1] was 2.82 µM [falling, single point].
For `NNC(=O)CC(=O)NC1(Cc2ccc(O)cc2)CCCCC1`, the AC50 [1] was 35.5 µM [falling, single point].
For `COc1ccc(-c2[nH]n(-c3ccc([N+](=O)[O-])cc3)c(=O)c2C=NCc2ccc(F)cc2)cc1`, the AC50 [1] was 0.206 µM [rising, partial curve, poor fit].
For `CN(C(=O)c1ccc2c(c1)OCO2)C1CCCCC1`, the AC50 [1] was 11.2 µM [falling, partial curve, poor fit].
